These are yes or no findings as the source states them, for the method shown. For some of these results: In cells and extracts the contact can be indirect. For some of these results: Binding calls can cover weak binding; strength is not graded here. For some of these results: Sequences can lack the tags named with a protein.
Columns and labels:
[1] = biological target: HrpP_(1–101) fused to the N-terminal fragment of GFP (P. syringae pv. tomato DC3000); assay: split reporter; BiFC: HrpP or truncated HrpP fused to the N-terminal fragment of GFP, MKK2 to the C-terminal fragment; coexpressed in N. benthamiana leaves by Agrobacterium infiltration; confocal microscopy at 2 dpi
[2] = biological target: HrpP_(1–119) fused to the N-terminal fragment of GFP (P. syringae pv. tomato DC3000); assay: as above
[3] = biological target: HrpP-GFP^N (P. syringae pv. tomato DC3000); assay: as above
[4] = biological target: HrpP of P. syringae pv. tomato DC3000, two-hybrid bait in pGBKT7 (P. syringae pv. tomato DC3000) (UniProt G3XDD5); assay: two-hybrid; hrpP in pGBKT7 as bait, candidate genes in pGADT7 as prey; yeast strain Gold; tested on SD/-His/-Leu/-Trp/-Ade or SD/-His/-Leu/X-α-Gal plates

Binder	binding [1]	binding [2]	binding [3]	binding [4]
MKK2-GFP^C (protein, UniProt Q9S7U9 1-363) MKKGGFSNNLKLAIPVAGEQSITKFLTQSGTFKDGDLRVNKDGVRIISQLEPEVLSPIKPADDQLSLSDLDMVKVIGKGSSGVVQLVQHKWTGQFFALKVIQLNIDEAIRKAIAQELKINQSSQCPNLVTSYQSFYDNGAISLILEYMDGGSLADFLKSVKAIPDSYLSAIFRQVLQGLIYLHHDRHIIHRDLKPSNLLINHRGEVKITDFGVSTVMTNTAGLANTFVGTYNYMSPERIVGNKYGNKSDIWSLGLVVLECATGKFPYAPPNQEETWTSVFELMEAIVDQPPPALPSGNFSPELSSFISTCLQKDPNSRSSAKELMEHPFLNKYDYSGINLASYFTDAGSPLATLGNLSGTFSV	no binding	binds	binds	
PBL2, two-hybrid prey in pGADT7 (enzyme, UniProt O49839 1-426) MGNCLDSSAKVDNSNHSPHANSASSGSKVSSKTSRSTGPSGLSTTSYSTDSSFGPLPTLRTEGEILSSPNLKAFTFNELKNATKNFRQDNLLGEGGFGCVFKGWIDQTSLTASRPGSGIVVAVKQLKPEGFQGHKEWLTEVNYLGQLSHPNLVLLVGYCAEGENRLLVYEFMPKGSLENHLFRRGAQPLTWAIRMKVAVGAAKGLTFLHEAKSQVIYRDFKAANILLDADFNAKLSDFGLAKAGPTGDNTHVSTKVIGTHGYAAPEYVATGRLTAKSDVYSFGVVLLELISGRRAMDNSNGGNEYSLVDWATPYLGDKRKLFRIMDTKLGGQYPQKGAFTAANLALQCLNPDAKLRPKMSEVLVTLEQLESVAKPGTKHTQMESPRFHHSSVMQKSPVRYSHDRPLLHMTPGASPLPSYTQSPRVR				no binding
LORE, two-hybrid prey in pGADT7 (receptor, UniProt O64782 1-805) MGMVLFACLLLLIIFPTCGYAAINTSSPLSIRQTLSSPGGFYELGFFSPNNTQNQYVGIWFKKIVPRVVVWVANRDTPVTSSAANLTISSNGSLILLDGKQDVIWSTGKAFTSNKCHAELLDTGNFVVIDDVSGNKLWQSFEHLGNTMLPQSSLMYDTSNGKKRVLTTWKSNSDPSPGEFSLEITPQIPTQGLIRRGSVPYWRCGPWAKTRFSGISGIDASYVSPFSVVQDTAAGTGSFSYSTLRNYNLSYVTLTPEGKMKILWDDGNNWKLHLSLPENPCDLYGRCGPYGLCVRSDPPKCECLKGFVPKSDEEWGKGNWTSGCVRRTKLSCQAKSSMKTQGKDTDIFYRMTDVKTPDLHQFASFLNAEQCYQGCLGNCSCTAFAYISGIGCLVWNGELADTVQFLSSGEFLFIRLASSELAGSSRRKIIVGTTVSLSIFLILVFAAIMLWRYRAKQNDAWKNGFERQDVSGVNFFEMHTIRTATNNFSPSNKLGQGGFGPVYKGKLVDGKEIGVKRLASSSGQGTEEFMNEITLISKLQHRNLVRLLGYCIDGEEKLLIYEFMVNKSLDIFIFDPCLKFELDWPKRFNIIQGIARGLLYLHRDSRLRVIHRDLKVSNILLDDRMNPKISDFGLARMFQGTQYQDNTRRVVGTLGYMSPEYAWAGLFSEKSDIYSFGVLMLEIISGKRISRFIYGDESKGLLAYTWDSWCETGGSNLLDRDLTDTCQAFEVARCVQIGLLCVQHEAVDRPNTLQVLSMLTSATDLPVPKQPIFAVHTLNDMPMLQANSQDFLSVNEMTESMIQGR				no binding
PBL1, two-hybrid prey in pGADT7 (enzyme, UniProt Q8H186 1-389) MGSCLSSRVLNKSSSGLDDLHLSSCKSSSSATAHKTEGEILSSTTVKSFSFNELKLATRNFRSDSVVGEGGFGCVFRGWLDETTLTPTKSSSGLVIAVKRLNPDGFQGHREWLTEINYLGQLSHPNLVKLIGYCLEDEQRLLVYEFMHKGSLENHLFANGNKDFKPLSWILRIKVALDAAKGLAFLHSDPVKVIYRDIKASNILLDSDFNAKLSDFGLARDGPMGEQSYVSTRVMGTFGYAAPEYVSTGHLNARSDVYSFGVVLLELLCGRQALDHNRPAKEQNLVDWARPYLTSRRKVLLIVDTRLNSQYKPEGAVRLASIAVQCLSFEPKSRPTMDQVVRALVQLQDSVVKPANVDPLKVKDTKKLVGLKTEDKYQRNGLNKKTVGL				no binding
PBL27, two-hybrid prey in pGADT7 (enzyme, UniProt Q1PDV6 1-513) MSGCLPCFGSSAKDAASKDSVKKELSAKDGSVTQSHHISLDKSKSRRGPEQKKELTAPKEGPTAHIAAQTFTFRELAAATKNFRPECLLGEGGFGRVYKGRLETTGQIVAVKQLDRNGLQGNREFLVEVLMLSLLHHPNLVNLIGYCADGDQRLLVYEYMPLGSLEDHLHDLPPDKEPLDWSTRMTIAAGAAKGLEYLHDKANPPVIYRDLKSSNILLGDGYHPKLSDFGLAKLGPVGDKTHVSTRVMGTYGYCAPEYAMTGQLTLKSDVYSFGVVFLELITGRKAIDNARAPGEHNLVAWARPLFKDRRKFPKMADPSLQGRYPMRGLYQALAVAAMCLQEQAATRPLIGDVVTALTYLASQTFDPNAPSGQNSRSGSGPPFIRTRDDRRSLGDGSSLDSPAETRSRLGSPATHKNSPDYRRRDMVREVNAGSEGGSETGGGSGRKWGLSDLEGQESQRGSPASVGRSSRGTPRNRDLDRERAVAEAKVWGENWRERKRATNGPGSFDSTND				no binding
